Results published in PMC5133898.
Results are given in words; binding and its absence hold for the method and conditions named. In cells and extracts the contact can be indirect. Some results given as binding are weak or reduced against the parent protein; the word gives no strength.

Chains of the proteins cited; added tags and fusions are not shown. Lines headed by an entry give the natural chain unless they say otherwise; changes in a name come on top.
UniProt P24385: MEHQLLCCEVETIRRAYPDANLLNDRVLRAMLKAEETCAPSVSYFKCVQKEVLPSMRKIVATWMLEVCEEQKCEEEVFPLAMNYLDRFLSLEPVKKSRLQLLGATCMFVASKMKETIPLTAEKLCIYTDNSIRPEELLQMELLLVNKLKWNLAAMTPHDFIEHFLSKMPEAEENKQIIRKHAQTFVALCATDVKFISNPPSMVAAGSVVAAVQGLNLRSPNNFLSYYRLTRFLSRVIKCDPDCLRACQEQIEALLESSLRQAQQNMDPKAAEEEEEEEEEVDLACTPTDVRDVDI
UniProt Q9Y297: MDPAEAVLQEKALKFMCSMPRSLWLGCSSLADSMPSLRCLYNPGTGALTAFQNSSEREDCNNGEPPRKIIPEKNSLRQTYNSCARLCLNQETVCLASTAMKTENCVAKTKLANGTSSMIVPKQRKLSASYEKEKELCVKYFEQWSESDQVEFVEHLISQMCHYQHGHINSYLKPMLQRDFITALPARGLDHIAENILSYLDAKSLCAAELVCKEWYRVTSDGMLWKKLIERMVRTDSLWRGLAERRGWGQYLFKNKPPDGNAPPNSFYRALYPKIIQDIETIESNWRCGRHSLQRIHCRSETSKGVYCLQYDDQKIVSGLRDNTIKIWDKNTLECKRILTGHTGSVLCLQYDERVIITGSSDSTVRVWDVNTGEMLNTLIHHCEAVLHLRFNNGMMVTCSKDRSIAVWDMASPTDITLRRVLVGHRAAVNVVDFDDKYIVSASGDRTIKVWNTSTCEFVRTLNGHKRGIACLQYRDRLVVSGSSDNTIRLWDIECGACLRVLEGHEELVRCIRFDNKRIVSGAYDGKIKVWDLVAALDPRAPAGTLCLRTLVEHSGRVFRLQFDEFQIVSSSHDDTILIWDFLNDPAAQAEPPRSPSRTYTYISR

Tests used:
[1] = biological target: HA-tagged Cyclin D1 (wild-type) (UniProt P24385); test: co-IP; HepG2 cells transfected with pcDNA3 HA-Cyclin D1 wt or T286A, treated with berberine for 6 h; complex precipitated with HA antibody; β-TrCP and Cyclin D1 detected by immunoblot
[2] = biological target: HA-tagged Cyclin D1 T286A mutant (UniProt P24385); test: as above
[3] = biological target: Cyclin D1 (endogenous, HepG2 cells) (human (endogenous in HepG2)) (UniProt P24385); test: co-IP; HepG2 cells treated with berberine for 6 h in the presence of MG-132 (20 nM); NP-40 lysate; endogenous Cyclin D1 precipitated with Cyclin D1 antibody on Dynabeads protein G; β-TrCP detected by immunoblot

binding [1]: binds | binding [2]: no binding | binding [3]: binds
Substance: β-transducin repeat-containing protein (β-TrCP), endogenous in HepG2 cells (from UniProt Q9Y297 1-605)
